From paper PMC11858653, “Design, Synthesis and Bioactive Evaluation of Topo I/c-MYC Dual Inhibitors to Inhibit Oral Cancer via Regulating the PI3K/AKT/NF-κB Signaling Pathway” (Molecules, 2025)

System: Cal27 cells
Test: Cellular localization by confocal microscopy
Assay type: cell-based, human
Details: Cal27, 48 h

With `Cc1cc(C)c2c(n1)S(=O)(=O)c1c-2nc(NCCN2CCCCC2)c2ccccc12` [7be, 7,9-Dimethyl-5-((2-(piperidin-1-yl)ethyl)amino) pyrido[3′,2′:4,5]thieno[3,2-c]isoquinoline 11,11-dioxide] as the compound, how does the “Pearson's colocalization coefficient with LTDR (lysosome)” value read?
The value was 0.8.

What about the “colocalization coefficient with MTDR (mitochondria)” value of the same compound?
The value was 0.42.
